Experimental data published in PubChem BioAssay (Tox21).
Only results without a clear call are listed here; the source files them as inconclusive. Unless noted, the call rests on the fitted dose curve; in most records, active means well fitted curve in the direction sought with a large enough effect in the repeat runs; inconclusive means weak or mixed curves; inactive means no such curve, though single readings can be large; an effect the other way counts as inactive or inconclusive.

Sequences of proteins named here, by UniProt entry; tags and fusion partners are left off.
UniProt P10275, whole entry: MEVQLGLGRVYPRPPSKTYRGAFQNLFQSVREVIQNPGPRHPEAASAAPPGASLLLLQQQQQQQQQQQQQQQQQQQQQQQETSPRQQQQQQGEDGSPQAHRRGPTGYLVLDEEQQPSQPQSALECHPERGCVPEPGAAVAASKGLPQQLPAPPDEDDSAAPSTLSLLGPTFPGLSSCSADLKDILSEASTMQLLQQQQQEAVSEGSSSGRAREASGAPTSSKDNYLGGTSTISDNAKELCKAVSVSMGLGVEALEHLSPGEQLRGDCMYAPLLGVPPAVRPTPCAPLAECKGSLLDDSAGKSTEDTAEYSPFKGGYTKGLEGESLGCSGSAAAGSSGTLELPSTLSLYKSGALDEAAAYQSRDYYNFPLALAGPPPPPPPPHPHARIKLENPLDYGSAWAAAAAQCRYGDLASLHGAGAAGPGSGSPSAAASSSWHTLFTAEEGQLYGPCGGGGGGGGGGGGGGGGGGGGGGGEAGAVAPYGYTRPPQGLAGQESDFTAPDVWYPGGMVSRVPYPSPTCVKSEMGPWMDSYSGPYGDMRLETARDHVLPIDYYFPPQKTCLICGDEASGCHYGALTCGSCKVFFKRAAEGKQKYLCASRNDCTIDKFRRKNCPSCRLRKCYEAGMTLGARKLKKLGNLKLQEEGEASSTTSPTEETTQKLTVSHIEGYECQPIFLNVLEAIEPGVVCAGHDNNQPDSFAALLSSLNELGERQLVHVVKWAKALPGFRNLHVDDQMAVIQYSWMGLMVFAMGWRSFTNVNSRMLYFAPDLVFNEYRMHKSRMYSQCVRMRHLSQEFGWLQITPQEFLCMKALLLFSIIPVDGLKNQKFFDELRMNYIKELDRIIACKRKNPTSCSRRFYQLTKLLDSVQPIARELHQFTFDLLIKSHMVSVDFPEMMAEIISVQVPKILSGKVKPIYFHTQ
UniProt P03372, whole entry: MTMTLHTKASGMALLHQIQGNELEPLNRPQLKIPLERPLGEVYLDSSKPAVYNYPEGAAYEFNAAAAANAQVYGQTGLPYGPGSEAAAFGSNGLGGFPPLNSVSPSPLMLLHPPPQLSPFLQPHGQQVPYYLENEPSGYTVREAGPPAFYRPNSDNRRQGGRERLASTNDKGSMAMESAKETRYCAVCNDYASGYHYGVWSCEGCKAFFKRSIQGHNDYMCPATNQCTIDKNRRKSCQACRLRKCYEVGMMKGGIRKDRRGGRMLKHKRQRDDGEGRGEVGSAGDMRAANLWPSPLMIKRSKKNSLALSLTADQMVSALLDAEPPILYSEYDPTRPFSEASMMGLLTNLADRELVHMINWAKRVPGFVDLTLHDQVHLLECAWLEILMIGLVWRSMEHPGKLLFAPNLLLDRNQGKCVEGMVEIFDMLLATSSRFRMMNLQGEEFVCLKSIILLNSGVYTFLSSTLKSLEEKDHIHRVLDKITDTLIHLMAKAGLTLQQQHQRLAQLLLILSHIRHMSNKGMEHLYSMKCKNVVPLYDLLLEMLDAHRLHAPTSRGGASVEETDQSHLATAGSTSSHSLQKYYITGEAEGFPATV
UniProt P37231, whole entry: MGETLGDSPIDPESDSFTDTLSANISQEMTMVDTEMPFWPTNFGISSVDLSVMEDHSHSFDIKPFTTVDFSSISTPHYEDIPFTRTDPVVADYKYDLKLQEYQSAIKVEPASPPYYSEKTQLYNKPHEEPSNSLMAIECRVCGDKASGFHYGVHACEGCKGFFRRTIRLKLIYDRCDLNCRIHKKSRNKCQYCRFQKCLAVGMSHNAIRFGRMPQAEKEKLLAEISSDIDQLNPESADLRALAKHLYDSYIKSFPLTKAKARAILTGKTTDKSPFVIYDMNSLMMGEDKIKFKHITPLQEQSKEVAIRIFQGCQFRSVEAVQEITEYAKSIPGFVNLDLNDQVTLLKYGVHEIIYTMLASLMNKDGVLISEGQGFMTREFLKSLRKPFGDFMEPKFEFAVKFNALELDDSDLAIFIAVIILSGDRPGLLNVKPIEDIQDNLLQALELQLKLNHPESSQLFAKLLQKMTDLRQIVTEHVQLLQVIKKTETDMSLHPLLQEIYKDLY
UniProt Q96RI1, whole entry: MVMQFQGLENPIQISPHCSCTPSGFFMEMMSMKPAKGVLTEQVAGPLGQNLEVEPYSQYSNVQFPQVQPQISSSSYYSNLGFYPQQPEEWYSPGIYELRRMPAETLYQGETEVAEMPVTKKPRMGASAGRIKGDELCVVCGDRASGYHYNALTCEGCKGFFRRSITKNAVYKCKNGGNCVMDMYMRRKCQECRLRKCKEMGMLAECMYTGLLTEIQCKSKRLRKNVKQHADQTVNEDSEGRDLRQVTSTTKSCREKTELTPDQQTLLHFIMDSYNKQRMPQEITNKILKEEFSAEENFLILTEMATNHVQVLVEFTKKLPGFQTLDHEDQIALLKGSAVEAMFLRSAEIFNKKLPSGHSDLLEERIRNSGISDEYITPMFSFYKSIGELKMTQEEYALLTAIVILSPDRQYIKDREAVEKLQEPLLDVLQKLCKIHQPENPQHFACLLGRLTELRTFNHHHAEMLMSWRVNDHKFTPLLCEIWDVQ
UniProt P11712, whole entry: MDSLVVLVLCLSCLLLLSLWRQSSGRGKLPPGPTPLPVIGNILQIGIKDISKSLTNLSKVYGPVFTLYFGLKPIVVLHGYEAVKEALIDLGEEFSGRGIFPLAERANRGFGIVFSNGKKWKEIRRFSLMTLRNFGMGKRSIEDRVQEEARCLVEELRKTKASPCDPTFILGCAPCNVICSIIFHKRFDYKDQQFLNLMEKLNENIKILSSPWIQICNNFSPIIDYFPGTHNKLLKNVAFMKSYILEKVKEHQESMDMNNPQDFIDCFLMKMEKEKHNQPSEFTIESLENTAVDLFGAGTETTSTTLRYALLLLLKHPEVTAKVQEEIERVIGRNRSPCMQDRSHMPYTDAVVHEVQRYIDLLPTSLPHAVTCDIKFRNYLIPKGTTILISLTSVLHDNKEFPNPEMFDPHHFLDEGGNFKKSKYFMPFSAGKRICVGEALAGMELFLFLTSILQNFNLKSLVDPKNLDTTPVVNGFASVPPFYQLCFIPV
UniProt P19793, whole entry: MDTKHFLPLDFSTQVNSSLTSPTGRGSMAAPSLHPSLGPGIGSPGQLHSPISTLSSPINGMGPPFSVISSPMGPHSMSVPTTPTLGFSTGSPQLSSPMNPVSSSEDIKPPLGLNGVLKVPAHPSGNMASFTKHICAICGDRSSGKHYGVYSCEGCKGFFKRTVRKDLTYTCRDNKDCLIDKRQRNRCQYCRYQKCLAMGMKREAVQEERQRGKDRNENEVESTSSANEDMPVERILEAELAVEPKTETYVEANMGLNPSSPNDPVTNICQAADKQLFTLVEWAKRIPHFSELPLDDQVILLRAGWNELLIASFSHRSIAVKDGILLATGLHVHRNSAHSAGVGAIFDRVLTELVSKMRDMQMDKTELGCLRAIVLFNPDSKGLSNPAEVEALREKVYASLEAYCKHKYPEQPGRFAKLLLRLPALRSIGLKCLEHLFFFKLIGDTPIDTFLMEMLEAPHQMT

How the values were obtained:
[1] = qHTS RealTime-Glo MT Cell Viability Assay in HepG2 cells - 8 hour (AID 1224873); conditions: RealTime-Glo luminescence; further: nearly all actives have a fitted effect of over 55% in size
Procedure, shortened: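 HepG2 cells mixed with RealTime-Glo MT reagents (NanoLuc plus cell-permeant prosubstrate) were seeded at 600 cells/well, incubated 5 h at 37 C/5% CO2, then pinned with compounds in DMSO; nonlytic luminescence tracked viability during 40 h treatment.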

[2] = qHTS RealTime-Glo MT Cell Viability Assay in HepG2 cells - 0 hour (AID 1224889); conditions: RealTime-Glo luminescence; further: nearly all actives have a fitted effect of over 50% in size
Procedure, shortened: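 HepG2 cells were seeded at 600 cells/well together with NanoLuc luciferase and a cell-permeant prosubstrate, preincubated 5 h at 37 C/5% CO2, then pin-dosed with compounds in DMSO. Nonlytic luminescence from viable cells was read at each time point.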

[3] = qHTS assay for identifying genotoxic compounds that show differential cytotoxicity against isogenic chicken DT40 cell lines with known DNA damage response pathways - wild type cell line (AID 743012); conditions: DT40 wild type chicken cells viability, CellTiter-Glo, 40 h; further: nearly all actives have a fitted effect of over 60% in size
Procedure, shortened: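 300 wt DT40 cells/well; cpd (DMSO) pintool-transferred after ~0.5 h at 37 C/5% CO2; 40 h incubation; CellTiter-Glo added, 30 min RT; luminescence read.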

[4] = biological target: Androgen receptor (Homo sapiens) (UniProt P10275); test: qHTS assay to identify small molecule antagonists of the androgen receptor (AR) signaling pathway using the MDA cell line (AID 743042; further: nearly all actives have a fitted effect of over 55% in size); conditions: MDA-kb2 AR-luc, MMTV luciferase, R1881 antagonist, 16 h
[5] = biological target: Estrogen receptor (Homo sapiens) (UniProt P03372); test: qHTS assay to identify small molecule antagonists of the estrogen receptor alpha (ER-alpha) signaling pathway (AID 743069; active means well fitted curve in the direction sought with a large enough effect in the signal ratio in the repeat runs, not every such curve was filed as active; inconclusive means weak or mixed curves, or effect the other way; inactive means no such curve, though single readings can be large or run the other way; the % refers to the signal ratio); conditions: HEK293 ER-alpha-UAS-bla, beta-lactamase ratio, antagonist mode
Procedure, shortened: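 Screening used a UAS-driven beta-lactamase reporter integrated into HEK293 cells expressing ER-alpha, stimulated with 17beta-estradiol alongside test compounds over 18 hr at 37C; signal came from LiveBLAzer B/G FRET fluorescence.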

[6] = qHTS assay to identify small molecule antagonists of the estrogen receptor alpha (ER-alpha) signaling pathway using the BG1 cell line - cell viability counter screen (AID 743081); conditions: BG1Luc4E2 viability, CellTiter-Fluor, 22 h;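 further: compound given together with 17beta-estradiol as the ER stimulus; nearly all actives have a fitted effect of over 45% in size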
[7] = biological target: Peroxisome proliferator-activated receptor gamma (Homo sapiens) (UniProt P37231); test: qHTS assay to identify small molecule antagonists of the peroxisome proliferator-activated receptor gamma (PPARg) signaling pathway (AID 743191; calls by dose curve; further: nearly all actives have a fitted effect of over 30% in size); conditions: HEK293H PPARg-UAS-bla, beta-lactamase ratio, antagonist, 17 h; series mostly up to 81.1 µM
Procedure, shortened: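 GeneBLAzer PPARg UAS-bla HEK293H cells carrying a UAS-driven beta-lactamase reporter were plated at 3000 cells/well, preincubated 5 h at 37C, then given compound for 17 h at 37C; LiveBLAzer B/G FRET substrate was read after 1 h at room temperature.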

[8] = qHTS assay to identify small molecule agonists of the farnesoid-X-receptor (FXR) signaling pathway - cell viability counter screen (AID 743218); conditions: FXR-bla HEK293T viability, CellTiter-Glo luminescence, 16 h; further: nearly all actives have a fitted effect of over 45% in size
Procedure, shortened: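 Readout: CellTiter-Glo luminescence, 30 min RT, multiplexed after the FXR-bla FRET reading. HEK 293T FXR-UAS-bla cells received compound 5 h post-plating and were incubated 16 h at 37 C.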

[9] = biological target: Bile acid receptor (Homo sapiens) (UniProt Q96RI1); test: qHTS assay to identify small molecule agonists of the farnesoid-X-receptor (FXR) signaling pathway (AID 743220; active means well fitted activation curve with a large enough effect in the signal ratio in the repeat runs, not every such curve was filed as active; inconclusive means weak or mixed curves, or effect the other way; the % refers to the signal ratio); conditions: HEK293T FXR-UAS-bla, beta-lactamase FRET ratio, 16 h
[10] = qHTS assay to identify small molecule agonists of the hypoxia (HIF-1) signaling pathway (AID 1224846; active means well fitted activation curve with a large enough effect in the signal ratio in the repeat runs, not every such curve was filed as active; inconclusive means weak or mixed curves; the % refers to the signal ratio); conditions: HRE-bla ME-180 cells, beta-lactamase ratio, 17 h
Procedure, shortened: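 In ME-180 cells bearing an HRE-bla construct, 17 h treatment with DMSO-dissolved compounds at 37C was followed by CCF4-AM loading to quantify reporter induction.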

[11] = qHTS assay to identify small molecule agonists of the androgen receptor (AR) signaling pathway in the presence of an antagonist - cell viability counter screen (AID 1259379); conditions: MDA-kb2 viability, CellTiter-Fluor, 16 h; further: nearly all actives have a fitted effect of over 25% in size
Procedure, shortened: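 Counter screen for cell viability run in parallel with the AR agonist-mode luciferase assay. MDA-kb2 cells were co-treated with nilutamide (3.0uM final) and compounds, then incubated 16 hr at 37C, and CellTiter-Fluor fluorescence was measured.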

[12] = qHTS assay to identify small molecule agonists of the estrogen receptor alpha (ER-alpha) signaling pathway in the presence of an antagonist - cell viability counter screen (AID 1259386); conditions: VM7Luc4E2 viability, CellTiter-Fluor fluorescence, 22 h;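 further: cells exposed to compounds for 22 h at 37 °C before the viability read; nearly all actives have a fitted effect of over 30% in size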
Procedure, shortened: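 Steps: 5-day stripped-FBS culture; seed and incubate 24hr; add ICI-182,780 (10.0nM final); pin 15-point compound titration; incubate 22hr at 37C; add CellTiter-Fluor at 21hr; read fluorescence.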

[13] = Caspase-3/7 induction in CHO-K1 cells by small molecules, qHTS cell viability counter screen (AID 1346979); conditions: CellTiter-Fluor fluorescence, 17 h; further: nearly all actives have a fitted effect of over 35% in size
Procedure, shortened: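 Wild-type CHO-K1 cells (1,500/well) treated with compound after 5 h plating; after 16 h at 37C, viability read as CellTiter-Fluor fluorescence following 1 h reagent incubation, in the same wells as the caspase read.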

[14] = Caspase-3/7 induction in HepG2 cells by small molecules, qHTS cell viability counter screen (AID 1346981); conditions: CellTiter-Fluor fluorescence, 17 h; further: nearly all actives have a fitted effect of over 30% in size
Procedure, shortened: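 The parent HepG2 line is plated at 2,000 cells per well and rested 5 hr before compound pinning from DMSO stocks. Following a 16-hr treatment at 37 C, a fluorogenic live-cell substrate (CellTiter-Fluor) reports viability after 1 hr.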

[15] = biological target: Cytochrome P450 2C9 (Homo sapiens) (UniProt P11712); test: Cytochrome P450 Family 2 Subfamily C Member 9 (CYP2C9) small molecule antagonists: luciferase reporter qHTS assay (AID 1671198); conditions: P450-Glo CYP2C9 enzyme assay, luciferin luminescence; further: nearly all actives have a fitted effect of over 50% in size
Procedure, shortened: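 CYP2C9 activity was measured with a P450-Glo proluciferin substrate. Enzyme–substrate mix was held with compound for 10 min at room temperature, then NADPH regeneration solution was added for 1 h at 37C. Luciferin product was read as luminescence.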

[16] = qHTS assay for small molecule agonists of the p53 signaling pathway (AID 651631; calls by dose curve; further: nearly all actives have a fitted effect of over 15% in size); conditions: HCT-116 p53RE-bla reporter, beta-lactamase FRET ratio, 16 h
Procedure, shortened: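 HCT-116 cells carrying a beta-lactamase reporter under p53 response elements were dosed with compound for 16 h at 37 °C. LiveBLAzer B/G FRET substrate was then added for 2 h at room temperature, and fluorescence intensity was read to detect pathway agonism.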

[17] = qHTS assay to identify small molecule antagonists of the thyroid receptor (TR) signaling pathway - cell viability counter screen (AID 743064); conditions: GH3.TRE-Luc viability, CellTiter-Fluor, 24 h; further: nearly all actives have a fitted effect of over 50% in size
Procedure, shortened: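 GH3.TRE-Luc rat pituitary cells dosed after 4 hr plating, co-stimulated with T3 at 1 nM final, incubated 23.5 h at 37 C. Viability measured in the same wells by CellTiter-Fluor fluorescence after 30 min further at 37 C.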

[18] = qHTS assay for identifying genotoxic compounds that show differential cytotoxicity against isogenic chicken DT40 cell lines with known DNA damage response pathways - Rad54/Ku70 mutant cell line (AID 743015); conditions: DT40 Rad54/Ku70 mutant viability, CellTiter-Glo, 40 h; further: nearly all actives have a fitted effect of over 60% in size
[19] = biological target: Retinoic acid receptor RXR-alpha (Homo sapiens) (UniProt P19793); test: qHTS assay to identify small molecule agonists of the RXR signaling pathway (AID 1159527; calls by dose curve; further: nearly all actives have a fitted effect of over 35% in size); conditions: HEK293T RXRa-UAS-bla, beta-lactamase ratio, 16 h; series mostly up to 35.3 µM
Procedure, shortened: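 GeneBLAzer RXR-alpha-UAS-bla HEK 293T cells in 2% charcoal-stripped FBS medium were exposed to compounds for 16 hr at 37 C in agonist mode. Beta-lactamase reporter read as 460/530 nm FRET ratio after 2 hr substrate loading.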

Measured: Potency
Potency means the concentration at half of the fitted maximal effect.

OCCSCCO
inconclusive: [1] 26.8 µM | [2] 26.8 µM

CCOP(=O)(CC)Oc1ccc([N+](=O)[O-])cc1 (configuration not stated)
inconclusive: [3] 33.5 µM | [4] 26.6 µM | [5] 23.9 µM | [6] 11.9 µM | [7] 11.9 µM | [8] 26.6 µM | [9] 4.73 µM | [10] 23.9 µM | [11] 29.8 µM | [12] 26.6 µM | [13] 33.5 µM | [14] 33.5 µM

[NH4+].[O-][Cl+3]([O-])([O-])[O-]
inconclusive: [15] 90.5 µM

CCC(=O)N(c1ccccc1)C1(COC)CCN(CCn2nnn(CC)c2=O)CC1
inconclusive: [16] 0.239 µM | [3] 67.3 µM | [17] 26.8 µM | [15] 43.9 µM

CN(C(=O)Cc1cccc2occc12)[C@H]1CC[C@@]2(CCCO2)C[C@@H]1N1CCCC1
inconclusive: [18] 48.2 µM | [19] 9.71 µM

CC(C)OP(C)(=O)OC(C)C
inconclusive: [17] 27.3 µM
